Measurements from patent US20120302614A1, “METHOD FOR IMPROVING CEREBRAL CIRCULATION OR TREATING A CEREBRAL BLOOD FLOW DISORDER” (OSAKA UNIVERSITY, priority 2007, published 2012).

Test system: Aβ injection model (Aβ 1-40 administered intracerebroventricularly)
Experiment: Morris water maze tests in Aβ injection model, Test Example 2
Assay type: in vivo, ddY mouse
Conditions: olmesartan medoxomil 1 mg/kg/day, hydralazine 30 mg/kg/day
Procedure: The therapeutic effect of olmesartan medoxomil in Aβ injection model and the dose dependency thereof were examined according to the following experimental schedule. [Experimental Schedule]: Prior to the experiment, 8-week old male ddY mice were administered olmesartan medoxomil (0.5 mg/kg/day, 1 mg/kg/day, 3 mg/kg/day or 6 mg/kg/day) or distilled water orally for four weeks (day −28 to −1). Then, Aβ 1-40 was administered to the mice intracerebroventricularly (day 0). […] Mice are released into the water, and the time it takes them to reach the platform is measured. […] The time it takes them to reach the platform is measured. • Probe test: The platform is removed, and mice are released and allowed to swim freely. […] The time they spent in that quadrant is measured. • Annnulus crossing: The number of times mice crossed the platform in the probe test is counted. […] The number of successive interceptions by the subject of the two adjoining beams on each bank is counted as locomotion score. • Long-term retention: On day 12 after the completion of the hidden platform test as a water maze test, mice are released into the water and the time it takes them to reach the platform is measured. • Working memory task: The platform is transferred and fixed at a new place. Mice are given four consecutive trials at intervals of as short as 20 seconds, and the time it takes them to reach the platform is measured. […]

CCCc1nc(C(C)(C)O)c(C(=O)OCc2oc(=O)oc2C)n1Cc1ccc(-c2ccccc2-c2nnn[nH]2)cc1 [olmesartan medoxomil, (5-methyl-2-oxo-1,3-dioxolen-4-yl)methyl 4-(1-hydroxy-1-methylethyl)-2-propyl-1-[4-[2-(tetrazol-5-yl)phenyl]phenyl]methyl-imidazole-5-carboxylate]
swimming speed: difference between groups: No significant difference | visible platform test: difference between groups: No significant difference
